# Where a name gives a salt, the structure may show the parent alone. ± gives the standard deviation of the averaged measurements. Some of the results follow. Single values are uncertain, as repeats are few or missing.
# System: RAW 264.7
# Assay: HMGB1-induced TNF-alpha production relative to HMGB1-stimulated control; higher = more TNF-alpha secretion (less inhibition)
# Conditions: stimulus: HMGB1 5 ug/ml, 18 h
# [1] = compound concentration: 1 ug/ml
smiles,measurement,setting,value
CC1=C(/C=C/C(C)=C/C=C/C(C)=C/C(=O)O)C(C)(C)CCC1 [Retinoic acid],HMGB1-induced TNF-alpha production,compound concentration: 3 uM,73.2 ± 33%
CC1=C(/C=C/C(C)=C/C=C/C(C)=C/C(=O)O)C(C)(C)CCC1 [Retinoic Acid],HMGB1-induced TNF-alpha production,compound concentration: 3 uM,69.9%
CC1=C(/C=C/C(C)=C/C=C/C(C)=C/C(=O)O)C(C)(C)CCC1,HMGB1-induced TNF-alpha production,compound concentration: 3 uM,88.2 ± 13%
NC(=O)c1cc[n+](CC2=C(C(=O)[O-])N3C(=O)[C@@H](NC(=O)[C@@H](c4ccccc4)S(=O)(=O)O)[C@H]3SC2)cc1 [Cefsulodin sodium salt],HMGB1-induced TNF-alpha production,compound concentration: 3 uM,123%
"CC(O)C(O)[C@H]1CNc2nc(N)[nH]c(=O)c2N1 (stereo partly drawn) [(6R)-5,6,7,8-Tetrahydro-L-biopterin hydrochloride]",HMGB1-induced TNF-alpha production,compound concentration: 3 uM,108%
CC(C)=CC[C@@H](O)C1=CC(=O)c2c(O)ccc(O)c2C1=O [Shikonin],HMGB1-induced TNF-alpha production,compound concentration: 3 uM,11.1%
NC(=O)C1=CN(C2OC(COP(=O)(O)OP(=O)(O)OC[C@H]3O[C@@H](n4cnc5c(N)ncnc54)C(OP(=O)(O)O)[C@H]3O)C(O)C2O)C=CC1 (stereo partly drawn) [NADPH tetrasodium],HMGB1-induced TNF-alpha production,compound concentration: 3 uM,110%
CCc1c(C)[nH]c2c1C(=O)C(CN1CCOCC1)CC2 (stereo not drawn) [Molindone hydrochloride],HMGB1-induced TNF-alpha production,compound concentration: 3 uM,106 ± 3.8%
"NC(=O)CNCCC(c1ccccc1)c1ccccc1 [N-(3,3-Diphenylpropyl)glycinamide]",HMGB1-induced TNF-alpha production,compound concentration: 3 uM,90.1%
CC(=O)OCC1OC(Oc2cc(OC(C)=O)c3c(=O)cc(-c4ccc(OC(C)=O)c(OC(C)=O)c4)oc3c2)C(OC(C)=O)C(OC(C)=O)C1OC(C)=O (stereo not drawn),HMGB1-induced TNF-alpha production,[1],70.4%
COc1cc(C(=O)NCCCCCC(=O)O)cc(OC)c1OC,HMGB1-induced TNF-alpha production,compound concentration: 3 uM,83.9%
CC1=C(C(=O)O)N2C(=O)[C@@H](NC(=O)[C@H](N)C3=CCC=CC3)[C@H]2SC1 [Cephradine],HMGB1-induced TNF-alpha production,compound concentration: 3 uM,77.4%
CC1=C(C(=O)O)N2C(=O)[C@@H](NC(=O)[C@H](N)C3=CCC=CC3)[C@H]2SC1,HMGB1-induced TNF-alpha production,compound concentration: 3 uM,90.8%
N[C@@H](CCC(=O)N[C@@H](CS)C(=O)NCC(=O)O)C(=O)O,HMGB1-induced TNF-alpha production,compound concentration: 3 uM,87.1%
CCC1(c2ccccc2)NC(=O)N(C)C1=O (stereo not drawn) [Mephenytoin],HMGB1-induced TNF-alpha production,compound concentration: 3 uM,99.8 ± 24%
CC1(C)[C@H](C(=O)O)N2C(=O)C[C@H]2S1(=O)=O [Sulbactam],HMGB1-induced TNF-alpha production,compound concentration: 3 uM,92.7 ± 3.5%
COc1cc2c3cc1Oc1cc(ccc1O)C[C@@H]1c4c(cc(OC)c(O)c4Oc4ccc(cc4)C[C@@H]3N(C)CC2)CC[N+]1(C)C,HMGB1-induced TNF-alpha production,compound concentration: 3 uM,82.2%
Cc1ncc(CO)c(CO)c1O [Pyridoxine hydrochloride],HMGB1-induced TNF-alpha production,compound concentration: 3 uM,103%
Cc1ncc(CO)c(CO)c1O,HMGB1-induced TNF-alpha production,compound concentration: 3 uM,84.2%
CN1CCc2cc(Cl)c(O)cc2[C@@H](c2ccccc2)C1,HMGB1-induced TNF-alpha production,compound concentration: 3 uM,79.2 ± 8.7%
Nc1ccc(N2C(=O)c3ccccc3C2=O)c(Cl)c1 [N-(4-Amino-2-chlorophenyl)phthalimide],HMGB1-induced TNF-alpha production,compound concentration: 3 uM,109%
C#C[C@]1(OC(C)=O)CC[C@H]2[C@@H]3CCC4=CC(=NO)CC[C@@H]4[C@H]3CC[C@@]21CC (mixture of isomers) [Norgestimate],HMGB1-induced TNF-alpha production,compound concentration: 3 uM,83.5%
C#C[C@]1(OC(C)=O)CC[C@H]2[C@@H]3CCC4=CC(=NO)CC[C@@H]4[C@H]3CC[C@@]21CC (mixture of isomers),HMGB1-induced TNF-alpha production,compound concentration: 3 uM,91.9%
COc1ccc2cc([C@H](C)CO)ccc2c1,HMGB1-induced TNF-alpha production,compound concentration: 3 uM,89.6%
CC(=O)O[C@]1(C(C)=O)CC[C@H]2[C@@H]3C=C(Cl)C4=CC(=O)[C@@H]5C[C@@H]5[C@]4(C)[C@H]3CC[C@@]21C [Cyproterone Acetate],HMGB1-induced TNF-alpha production,compound concentration: 3 uM,82.3%
CC(=O)O[C@]1(C(C)=O)CC[C@H]2[C@@H]3C=C(Cl)C4=CC(=O)[C@@H]5C[C@@H]5[C@]4(C)[C@H]3CC[C@@]21C [Cyproterone acetate],HMGB1-induced TNF-alpha production,[1],77.3%
same,HMGB1-induced TNF-alpha production,compound concentration: 3 uM,118 ± 32%
CC(=O)O[C@]1(C(C)=O)CC[C@H]2[C@@H]3C=C(Cl)C4=CC(=O)[C@@H]5C[C@@H]5[C@]4(C)[C@H]3CC[C@@]21C,HMGB1-induced TNF-alpha production,compound concentration: 3 uM,71.1%
O=C(O)C1CCCN(CCC=C(c2ccccc2)c2ccccc2)C1 (stereo not drawn),HMGB1-induced TNF-alpha production,compound concentration: 3 uM,100%
Clc1ccc(CO/N=C(\Cn2ccnc2)c2ccc(Cl)cc2Cl)c(Cl)c1,HMGB1-induced TNF-alpha production,compound concentration: 3 uM,99.2 ± 1.9%
Clc1ccc(CO/N=C(\Cn2ccnc2)c2ccc(Cl)cc2Cl)c(Cl)c1 [Oxiconazole Nitrate],HMGB1-induced TNF-alpha production,compound concentration: 3 uM,74.1%
Clc1ccc(CO/N=C(\Cn2ccnc2)c2ccc(Cl)cc2Cl)c(Cl)c1 [Oxiconazole],HMGB1-induced TNF-alpha production,compound concentration: 3 uM,54.9%
CCCCC(CC)CCC(CC(C)C)OS(=O)(=O)O (stereo not drawn),HMGB1-induced TNF-alpha production,compound concentration: 3 uM,65.3%
O=C(O)COCCN1CCN(C(c2ccccc2)c2ccc(Cl)cc2)CC1 (stereo not drawn),HMGB1-induced TNF-alpha production,compound concentration: 3 uM,77.2%
O=C(O)COCCN1CCN(C(c2ccccc2)c2ccc(Cl)cc2)CC1 (stereo not drawn) [Cetirizine dihydrochloride],HMGB1-induced TNF-alpha production,compound concentration: 3 uM,73.3 ± 16%
N[C@@H]1CONC1=O [D-cycloserine],HMGB1-induced TNF-alpha production,compound concentration: 3 uM,129%
N[C@@H]1CONC1=O [D-Cycloserine],HMGB1-induced TNF-alpha production,compound concentration: 3 uM,90.9%
OCC1OC(n2cnc3c(NC4CCCCC4)ncnc32)C(O)C1O (stereo not drawn) [N6-Cyclohexyladenosine],HMGB1-induced TNF-alpha production,compound concentration: 3 uM,81.9%

# Part of the list above, with tabs.
smiles	measurement	setting	value
COc1cc2c3cc1Oc1cc(ccc1O)C[C@@H]1c4c(cc(OC)c(O)c4Oc4ccc(cc4)C[C@@H]3N(C)CC2)CC[N+]1(C)C	HMGB1-induced TNF-alpha production	compound concentration: 3 uM	82.2%
Cc1ncc(CO)c(CO)c1O	HMGB1-induced TNF-alpha production	compound concentration: 3 uM	84.2%
